For 3 substances, binding results are on record in paper PMC2770460.

Chains of the proteins cited; added tags and fusions are not shown. Lines headed by an entry give the natural chain unless they say otherwise; changes in a name come on top.
UniProt P12270: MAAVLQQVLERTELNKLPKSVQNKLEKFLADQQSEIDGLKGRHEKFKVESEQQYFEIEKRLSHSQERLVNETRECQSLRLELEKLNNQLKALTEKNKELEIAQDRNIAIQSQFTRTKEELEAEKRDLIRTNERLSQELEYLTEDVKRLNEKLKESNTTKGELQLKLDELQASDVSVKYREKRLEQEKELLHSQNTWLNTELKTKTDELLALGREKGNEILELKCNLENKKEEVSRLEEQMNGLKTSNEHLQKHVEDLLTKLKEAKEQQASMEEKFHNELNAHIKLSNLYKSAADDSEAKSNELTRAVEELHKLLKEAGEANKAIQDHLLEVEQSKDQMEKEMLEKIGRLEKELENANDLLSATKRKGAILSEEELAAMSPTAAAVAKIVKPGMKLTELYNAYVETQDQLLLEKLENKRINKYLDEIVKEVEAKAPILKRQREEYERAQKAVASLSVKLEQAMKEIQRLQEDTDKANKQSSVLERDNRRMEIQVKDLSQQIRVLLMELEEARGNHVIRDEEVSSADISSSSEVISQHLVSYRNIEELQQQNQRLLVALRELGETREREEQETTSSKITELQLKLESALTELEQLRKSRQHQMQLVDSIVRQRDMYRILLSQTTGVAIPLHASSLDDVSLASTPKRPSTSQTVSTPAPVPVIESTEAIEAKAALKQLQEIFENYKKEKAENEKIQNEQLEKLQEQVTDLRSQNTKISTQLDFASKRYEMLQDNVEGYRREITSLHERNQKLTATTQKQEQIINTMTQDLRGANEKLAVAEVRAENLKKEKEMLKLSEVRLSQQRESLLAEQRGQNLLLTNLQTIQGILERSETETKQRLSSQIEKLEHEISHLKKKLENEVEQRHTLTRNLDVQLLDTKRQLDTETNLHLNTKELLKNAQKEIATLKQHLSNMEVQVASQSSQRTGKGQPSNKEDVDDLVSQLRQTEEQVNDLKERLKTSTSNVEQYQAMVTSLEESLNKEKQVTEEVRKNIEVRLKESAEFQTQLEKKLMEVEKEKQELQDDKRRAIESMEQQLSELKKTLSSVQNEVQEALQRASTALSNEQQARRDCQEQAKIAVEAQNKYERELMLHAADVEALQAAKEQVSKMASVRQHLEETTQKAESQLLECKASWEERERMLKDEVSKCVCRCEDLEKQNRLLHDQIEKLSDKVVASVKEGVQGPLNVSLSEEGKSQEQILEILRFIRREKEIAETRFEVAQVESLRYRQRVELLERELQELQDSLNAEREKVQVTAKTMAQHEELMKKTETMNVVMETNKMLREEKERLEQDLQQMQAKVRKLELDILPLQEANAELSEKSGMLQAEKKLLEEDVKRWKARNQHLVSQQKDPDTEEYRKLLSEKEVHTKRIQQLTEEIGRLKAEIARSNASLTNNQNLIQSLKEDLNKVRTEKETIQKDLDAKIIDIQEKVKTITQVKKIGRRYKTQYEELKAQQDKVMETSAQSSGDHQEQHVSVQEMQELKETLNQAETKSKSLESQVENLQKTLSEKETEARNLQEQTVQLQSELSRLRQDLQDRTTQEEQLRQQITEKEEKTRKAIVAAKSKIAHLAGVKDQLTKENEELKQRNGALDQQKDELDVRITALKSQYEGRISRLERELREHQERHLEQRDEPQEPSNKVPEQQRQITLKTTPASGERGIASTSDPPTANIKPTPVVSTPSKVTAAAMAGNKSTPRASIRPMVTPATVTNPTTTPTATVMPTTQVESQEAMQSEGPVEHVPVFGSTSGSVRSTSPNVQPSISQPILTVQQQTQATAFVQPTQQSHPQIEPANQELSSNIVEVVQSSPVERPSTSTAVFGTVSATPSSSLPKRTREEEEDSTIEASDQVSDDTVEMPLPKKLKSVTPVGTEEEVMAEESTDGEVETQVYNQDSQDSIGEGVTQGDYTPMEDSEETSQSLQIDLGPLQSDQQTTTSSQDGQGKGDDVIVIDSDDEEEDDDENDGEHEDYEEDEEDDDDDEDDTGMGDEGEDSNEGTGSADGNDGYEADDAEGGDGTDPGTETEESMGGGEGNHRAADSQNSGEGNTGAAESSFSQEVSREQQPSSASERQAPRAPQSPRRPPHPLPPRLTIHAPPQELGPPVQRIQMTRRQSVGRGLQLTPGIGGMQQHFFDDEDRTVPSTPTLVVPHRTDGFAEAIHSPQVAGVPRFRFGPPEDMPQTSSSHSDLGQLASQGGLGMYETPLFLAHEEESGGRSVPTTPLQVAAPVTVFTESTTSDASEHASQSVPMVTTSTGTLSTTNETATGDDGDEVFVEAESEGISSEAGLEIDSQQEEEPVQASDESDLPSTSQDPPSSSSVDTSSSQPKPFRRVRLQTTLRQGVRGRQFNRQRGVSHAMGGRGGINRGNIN
UniProt Q14974: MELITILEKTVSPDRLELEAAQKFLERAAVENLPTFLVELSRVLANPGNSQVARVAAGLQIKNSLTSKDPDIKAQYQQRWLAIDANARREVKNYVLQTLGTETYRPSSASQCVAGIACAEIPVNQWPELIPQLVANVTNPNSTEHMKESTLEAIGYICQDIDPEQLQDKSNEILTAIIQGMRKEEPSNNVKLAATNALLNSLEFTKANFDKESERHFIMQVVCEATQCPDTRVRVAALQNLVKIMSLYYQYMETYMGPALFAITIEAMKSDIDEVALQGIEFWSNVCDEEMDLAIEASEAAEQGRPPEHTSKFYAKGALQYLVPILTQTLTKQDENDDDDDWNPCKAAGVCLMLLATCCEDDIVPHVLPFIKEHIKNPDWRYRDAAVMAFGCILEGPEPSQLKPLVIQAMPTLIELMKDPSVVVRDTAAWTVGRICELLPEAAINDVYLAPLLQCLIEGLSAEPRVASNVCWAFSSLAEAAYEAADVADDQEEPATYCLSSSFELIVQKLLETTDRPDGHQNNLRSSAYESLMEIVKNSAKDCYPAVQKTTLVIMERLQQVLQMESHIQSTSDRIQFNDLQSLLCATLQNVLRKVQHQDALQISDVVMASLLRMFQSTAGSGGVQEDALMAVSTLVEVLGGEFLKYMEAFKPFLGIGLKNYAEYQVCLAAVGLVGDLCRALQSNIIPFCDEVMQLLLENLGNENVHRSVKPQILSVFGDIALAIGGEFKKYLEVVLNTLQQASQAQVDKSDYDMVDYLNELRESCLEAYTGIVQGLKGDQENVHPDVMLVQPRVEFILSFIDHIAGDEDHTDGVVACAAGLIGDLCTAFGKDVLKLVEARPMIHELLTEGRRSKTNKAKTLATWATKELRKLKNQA

Assay [1] concerns the target recombinant full-length mammalian Tpr (6xHis-Tpr) (not stated (mammalian)) (UniProt P12270). The assay is described as follows: ELISA; solid phase binding assay: Maxisorp microtiter plates coated with 25 ng of Tpr or C-Tpr; increasing concentrations of the soluble protein; bound protein detected with primary antibodies and horseradish peroxidase-conjugated secondary antibodies (TMB); apparent Kd from B = Bmax x Y/(Kd + Y); CRM1, NES and RanGTP at equimolar concentrations; both purified. A general note: An ELISA detects its analyte on a solid surface through an enzyme-linked reagent.

The target is the same in assay [2]. The assay is described as follows: ELISA; solid phase assay: 100 nM importin β on Tpr adsorbed to microtiter wells, without or with 0.1, 0.2, 0.5 and 1 μM RanGMP-PNP or RanGDPβS; both purified.
For assay [3] the target is unchanged. The assay is described as follows: ELISA; competition-binding assay: plates coated with 25 ng Tpr; importin β constant at 60 nM, ΔIBB-importin α 0-600 nM; importin β detected by anti-S-tag, ΔIBB-importin α by its antibody; percentage of highest level of binding; both purified.

These are yes or no findings as the source states them, for the method shown. Some entries that bind do so weakly or less than the wild type.

Take “CRM1 (from UniProt O14980 1-1071) (other; other documents disagree on this pair)”: the binding result in assay [1] was “no binding”.
For the substance “His-S-tag-importin β (from UniProt Q14974 1-876)”, the binding result in assay [2] and in assay [3] was “binds” each time.
Turning to “importin β I178D (from UniProt Q14974 1-876)”, the binding entry in assay [1] is “no binding”.
